# Reference: the supplement of paper PMC8728848
# The other results are listed elsewhere or left out.
# Key:
# Assay in all cases: glycan array binding signal (z-score within array); higher = stronger binding
# Settings in all cases: glycan notation: IUPAC condensed, linker removed
# [1] = target: Gal(b1-4)GlcNAc(b1-2)Man(a1-3)[Gal(b1-4)GlcNAc(b1-2)Man(a1-6)]Man(b1-4)GlcNAc(b1-4)GlcNAc
# Procedure, shortened: (§1)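 Columns mapping to the same glycan were averaged after glycan names were converted to IUPAC-condensed notation. The data come from 3228 arrays in the Consortium for Functional Glycomics database, limited to those with an available protein sequence. Binding is reported as a within-array Z-score averaged across arrays of one protein sequence and across linkers.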
# [2] = target: Gal(b1-4)GlcNAc(b1-2)Man(a1-3)[Gal(b1-4)GlcNAc(b1-2)Man(a1-6)]Man(b1-4)GlcNAc(b1-4)[Fuc(a1-6)]GlcNAc
# Procedure, shortened: as §1
# [3] = target: Gal(b1-4)GlcNAc(b1-2)Man(a1-3)[Gal(b1-4)GlcNAc(b1-2)Man(a1-6)][Gal(b1-4)GlcNAc(b1-4)]Man(b1-4)GlcNAc(b1-4)[Fuc(a1-6)]GlcNAc
# Procedure, shortened: as §1
# [4] = target: Gal(b1-4)GlcNAc(b1-2)Man(a1-3)[Gal(b1-4)GlcNAc(b1-2)Man(a1-6)][GlcNAc(b1-4)]Man(b1-4)GlcNAc(b1-4)[Fuc(a1-6)]GlcNAc
# Procedure, shortened: as §1
# [5] = target: Gal(b1-4)GlcNAc(b1-2)Man(a1-3)[GlcNAc(b1-2)Man(a1-6)]Man(b1-4)GlcNAc(b1-4)GlcNAc
# Procedure, shortened: as §1
# [6] = target: Gal(b1-4)GlcNAc(b1-2)Man(a1-3)[GlcNAc(b1-4)][Gal(b1-4)GlcNAc(b1-2)Man(a1-6)]Man(b1-4)GlcNAc(b1-4)GlcNAc
# Procedure, shortened: as §1
# [7] = target: Gal(b1-4)GlcNAc(b1-2)Man(a1-3)[Man(a1-6)]Man(b1-4)GlcNAc(b1-4)GlcNAc
# Procedure, shortened: as §1
# [8] = target: Gal(b1-4)GlcNAc(b1-2)Man(a1-6)Man(b1-4)GlcNAc(b1-4)GlcNAc
# Procedure, shortened: as §1
# [9] = target: Gal(b1-4)GlcNAc(b1-2)Man(a1-6)[GlcNAc(b1-2)Man(a1-3)]Man(b1-4)GlcNAc(b1-4)GlcNAc
# Procedure, shortened: as §1
# [10] = target: Gal(b1-4)GlcNAc(b1-2)Man(a1-6)[Man(a1-3)]Man(b1-4)GlcNAc(b1-4)GlcNAc
# Procedure, shortened: as §1
# [11] = target: Gal(b1-4)GlcNAc(b1-2)[Gal(b1-4)GlcNAc(b1-4)]Man(a1-3)[Gal(b1-4)GlcNAc(b1-2)Man(a1-6)]Man(b1-4)GlcNAc(b1-4)GlcNAc
# Procedure, shortened: as §1
# [12] = target: Gal(b1-4)GlcNAc(b1-2)[Gal(b1-4)GlcNAc(b1-4)]Man(a1-3)[Gal(b1-4)GlcNAc(b1-2)[Gal(b1-4)GlcNAc(b1-6)]Man(a1-6)]Man(b1-4)GlcNAc(b1-4)GlcNAc
# Procedure, shortened: as §1
# [13] = target: Gal(b1-4)GlcNAc(b1-2)[Gal(b1-4)GlcNAc(b1-4)]Man(a1-3)[GlcNAc(b1-4)][Gal(b1-4)GlcNAc(b1-2)Man(a1-6)]Man(b1-4)GlcNAc(b1-4)GlcNAc
# Procedure, shortened: as §1
# [14] = target: Gal(b1-4)GlcNAc(b1-2)[Gal(b1-4)GlcNAc(b1-4)]Man(a1-3)[GlcNAc(b1-4)][Gal(b1-4)GlcNAc(b1-2)[Gal(b1-4)GlcNAc(b1-6)]Man(a1-6)]Man(b1-4)GlcNAc(b1-4)GlcNAc
# Procedure, shortened: as §1
# [15] = target: Gal(b1-4)GlcNAc(b1-2)[Gal(b1-4)GlcNAc(b1-6)]Man(a1-6)[Gal(b1-4)GlcNAc(b1-2)Man(a1-3)]Man(b1-4)GlcNAc(b1-4)GlcNAc
# Procedure, shortened: as §1
# [16] = target: Gal(b1-4)GlcNAc(b1-2)[Gal(b1-4)GlcNAc(b1-6)]Man(a1-6)[Gal(b1-4)GlcNAc(b1-2)Man(a1-3)]Man(b1-4)GlcNAc(b1-4)[Fuc(a1-6)]GlcNAc
# Procedure, shortened: as §1
# [17] = target: Gal(b1-4)GlcNAc(b1-2)[Gal(b1-4)GlcNAc(b1-6)]Man(a1-6)[GlcNAc(b1-4)][Gal(b1-4)GlcNAc(b1-2)Man(a1-3)]Man(b1-4)GlcNAc(b1-4)GlcNAc
# Procedure, shortened: as §1
# [18] = target: Gal(b1-4)GlcNAc(b1-2)[Gal(b1-4)GlcNAc(b1-6)]Man(a1-6)[GlcNAc(b1-4)][Gal(b1-4)GlcNAc(b1-2)[Gal(b1-4)GlcNAc(b1-4)]Man(a1-3)]Man(b1-4)GlcNAc(b1-4)[Fuc(a1-6)]GlcNAc
# Procedure, shortened: as §1
# [19] = target: Gal(b1-4)GlcNAc(b1-3)Gal(b1-3)GalNAc
# Procedure, shortened: as §1
binder,measurement,setting,value
"ERGIC1-EDTA (Homo sapiens), Q969X5 (protein) MKFLVNVALVFMVVYISYIYAAAHMHHHHHHDYDIPTTENLYFQGSEVVNELYVDDPDKDSGGKIDVSLNISLPNLHCELVGLDIQDEMGRHEVGHIDNSMKIPLNNGAGCRFEGQFSINKVPGNFHVSTHSATAQPQNPDMTHVIHKLSFGDTLQVQNIHGAFNALGGADRLTSNPLASHDYILKIVPTVYEDKSGKQRYSYQYTVANKEYVAYSHTGRIIPAIWFRYDLSPITVKYTE",glycan array binding signal (z-score),[1],1.31
same,glycan array binding signal (z-score),[2],0.214
same,glycan array binding signal (z-score),[3],-0.361
same,glycan array binding signal (z-score),[4],-0.444
same,glycan array binding signal (z-score),[5],-0.981
same,glycan array binding signal (z-score),[6],-0.567
same,glycan array binding signal (z-score),[7],0.243
same,glycan array binding signal (z-score),[8],0.227
same,glycan array binding signal (z-score),[9],-0.513
same,glycan array binding signal (z-score),[10],0.299
same,glycan array binding signal (z-score),[11],-0.981
same,glycan array binding signal (z-score),[12],-0.333
same,glycan array binding signal (z-score),[13],0.064
same,glycan array binding signal (z-score),[14],-0.648
same,glycan array binding signal (z-score),[15],1.68
same,glycan array binding signal (z-score),[16],0.574
same,glycan array binding signal (z-score),[17],-0.135
same,glycan array binding signal (z-score),[18],-0.619
same,glycan array binding signal (z-score),[19],-1.26

# Reprinted at random: 2 records from the list, in no set order.
binder,measurement,setting,value
"ERGIC1-EDTA (Homo sapiens), Q969X5 (protein) MKFLVNVALVFMVVYISYIYAAAHMHHHHHHDYDIPTTENLYFQGSEVVNELYVDDPDKDSGGKIDVSLNISLPNLHCELVGLDIQDEMGRHEVGHIDNSMKIPLNNGAGCRFEGQFSINKVPGNFHVSTHSATAQPQNPDMTHVIHKLSFGDTLQVQNIHGAFNALGGADRLTSNPLASHDYILKIVPTVYEDKSGKQRYSYQYTVANKEYVAYSHTGRIIPAIWFRYDLSPITVKYTE",glycan array binding signal (z-score),[8],0.227
same,glycan array binding signal (z-score),[19],-1.26
